Our source for the binding values is PMC6422396.

The assay deals with Toh1-YFP hybrid protein (full size Toh1 fused to YFP) (S. cerevisiae) (UniProt P46992). Kind of assay: SDD-AGE; semi-denaturing detergent agarose gel electrophoresis; extracts treated 10 min with 1% SDS at room temperature or boiled with SDS; Western blot with antibody to GFP.

No constants are given. Whether binding was seen depends on the method and setting. Some results given as binding are weak or reduced against the parent protein; the word gives no strength. Where a sequence is shown, tags or fusion partners need not be part of it.

B1: Toh1-YFP hybrid protein (full size Toh1 fused to YFP) (protein, UniProt P46992 20-368)
chain: SGPQSYQKLDFTNVGFTGSYVDVNKFKDITNNESCTCEVGDRVWFSGKNAPLADYLSVHFRGPLKLKQFAFYTSPGFTVNNSRSSSDWNRLAYYESSSKTADNVTFLNHGGEASPCLGNALSYASSNGTGSASEATVLADGTLISSDQEYIIYSNVSCPKSGYDKGCGVYRSGIPAYYGYGGTTKMFLFEFEMPTETEKNSSSIGYYDLPAIWLLNDHIARTSQYPTNANCSCWASGCGEYDIFEAMNGTEKNHLYSTFHTFQGIEDLGTGIQSYGYITRNTTGTMKGGVVFDSSGNVVSFISDATPFNGTVSADTVNDLLAAIPENETYSSQLMSISATAPSTTSKSN
Consider B1, for which the binding result is “binds”.
